The other results are listed elsewhere or left out.
What was measured:
Experiment in all cases: log2 fold change, soluble protein after heating vs DMSO (PISA); higher = thermal stabilisation; K562 cells, 10 uM, 30 min; active = over 0.2 and 3.5 SD of the protein, either way, in both replicates (recomputed)
[1] = compound: CS(=O)(=O)c1ccc(-c2cnc(N)c(C(=O)Nc3ccccc3)n2)cc1
Method in brief: (§1)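 K562 cells at 2×10^6 cells/mL were exposed to 10 μM compound for 30 min, then aliquots were heated for 3 min across 48°C-58°C, pooled, and extracted in PBS containing 0.5% NP-40 at 4°C. The supernatant after 21,000xg for 90 min was taken as soluble protein and measured by TMTpro 16plex LC-MS/MS with channel sums equalised. Thermal stability is reported relative to control samples, with values from duplicates. Fold changes are given on a log2 scale.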

Protein sequences, listed by entry. Tags and fused reporters are not part of them. Lines headed by an entry give the natural chain unless they say otherwise; changes in a name come on top.
UniProt Q6FI81: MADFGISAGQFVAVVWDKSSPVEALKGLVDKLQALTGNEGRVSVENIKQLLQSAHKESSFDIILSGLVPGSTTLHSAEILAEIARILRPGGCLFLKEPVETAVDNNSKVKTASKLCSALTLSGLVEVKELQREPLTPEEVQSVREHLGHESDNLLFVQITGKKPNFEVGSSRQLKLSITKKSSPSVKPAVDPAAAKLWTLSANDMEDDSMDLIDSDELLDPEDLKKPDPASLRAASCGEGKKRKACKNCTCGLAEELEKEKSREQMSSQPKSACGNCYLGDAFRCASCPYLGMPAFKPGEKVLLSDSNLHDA
UniProt Q96S66: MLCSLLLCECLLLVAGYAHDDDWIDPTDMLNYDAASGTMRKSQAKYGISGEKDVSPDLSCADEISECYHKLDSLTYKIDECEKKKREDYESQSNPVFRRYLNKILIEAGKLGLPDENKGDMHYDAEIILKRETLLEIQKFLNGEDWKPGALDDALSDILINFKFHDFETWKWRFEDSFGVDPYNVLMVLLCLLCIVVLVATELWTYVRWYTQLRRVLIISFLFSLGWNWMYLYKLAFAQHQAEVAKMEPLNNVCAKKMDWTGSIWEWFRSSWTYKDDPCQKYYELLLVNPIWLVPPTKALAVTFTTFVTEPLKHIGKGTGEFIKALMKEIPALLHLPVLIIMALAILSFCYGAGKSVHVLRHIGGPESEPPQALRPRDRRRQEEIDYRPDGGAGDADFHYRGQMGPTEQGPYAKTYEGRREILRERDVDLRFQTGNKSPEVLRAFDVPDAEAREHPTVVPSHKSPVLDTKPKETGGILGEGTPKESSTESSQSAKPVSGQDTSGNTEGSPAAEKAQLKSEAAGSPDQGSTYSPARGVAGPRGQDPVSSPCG
UniProt Q2KHT3: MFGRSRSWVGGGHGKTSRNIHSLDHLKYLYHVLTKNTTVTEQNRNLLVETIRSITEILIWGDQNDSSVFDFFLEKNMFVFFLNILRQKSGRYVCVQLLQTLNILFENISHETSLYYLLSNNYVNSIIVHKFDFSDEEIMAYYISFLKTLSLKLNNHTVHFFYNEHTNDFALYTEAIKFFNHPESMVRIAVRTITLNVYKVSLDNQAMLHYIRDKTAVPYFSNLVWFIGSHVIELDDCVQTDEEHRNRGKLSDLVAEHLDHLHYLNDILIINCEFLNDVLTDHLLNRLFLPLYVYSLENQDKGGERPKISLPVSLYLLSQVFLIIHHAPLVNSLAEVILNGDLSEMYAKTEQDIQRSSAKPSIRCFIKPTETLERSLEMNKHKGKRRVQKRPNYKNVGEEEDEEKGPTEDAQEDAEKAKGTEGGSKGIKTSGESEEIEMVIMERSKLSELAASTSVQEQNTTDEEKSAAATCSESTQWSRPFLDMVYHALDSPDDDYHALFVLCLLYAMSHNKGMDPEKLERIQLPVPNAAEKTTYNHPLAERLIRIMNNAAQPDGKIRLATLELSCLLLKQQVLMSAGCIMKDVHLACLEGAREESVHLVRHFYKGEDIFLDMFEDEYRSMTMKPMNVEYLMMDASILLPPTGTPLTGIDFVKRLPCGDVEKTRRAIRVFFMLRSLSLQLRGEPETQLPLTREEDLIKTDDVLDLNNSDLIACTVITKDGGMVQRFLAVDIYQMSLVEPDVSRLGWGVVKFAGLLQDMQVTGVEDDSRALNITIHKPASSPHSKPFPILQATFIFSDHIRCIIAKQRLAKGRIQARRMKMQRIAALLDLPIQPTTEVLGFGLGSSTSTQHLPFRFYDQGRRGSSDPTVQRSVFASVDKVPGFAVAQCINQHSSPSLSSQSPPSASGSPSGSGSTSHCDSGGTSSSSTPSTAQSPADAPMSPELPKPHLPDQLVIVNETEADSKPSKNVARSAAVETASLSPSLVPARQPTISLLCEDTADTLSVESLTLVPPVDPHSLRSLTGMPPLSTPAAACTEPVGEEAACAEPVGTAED
UniProt P09496: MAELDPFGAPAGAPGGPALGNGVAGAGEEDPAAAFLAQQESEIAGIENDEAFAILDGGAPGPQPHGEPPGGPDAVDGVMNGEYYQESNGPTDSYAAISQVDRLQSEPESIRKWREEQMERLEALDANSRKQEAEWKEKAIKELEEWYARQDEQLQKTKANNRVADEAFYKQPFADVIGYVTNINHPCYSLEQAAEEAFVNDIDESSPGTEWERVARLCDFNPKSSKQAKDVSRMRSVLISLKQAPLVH
UniProt Q14008: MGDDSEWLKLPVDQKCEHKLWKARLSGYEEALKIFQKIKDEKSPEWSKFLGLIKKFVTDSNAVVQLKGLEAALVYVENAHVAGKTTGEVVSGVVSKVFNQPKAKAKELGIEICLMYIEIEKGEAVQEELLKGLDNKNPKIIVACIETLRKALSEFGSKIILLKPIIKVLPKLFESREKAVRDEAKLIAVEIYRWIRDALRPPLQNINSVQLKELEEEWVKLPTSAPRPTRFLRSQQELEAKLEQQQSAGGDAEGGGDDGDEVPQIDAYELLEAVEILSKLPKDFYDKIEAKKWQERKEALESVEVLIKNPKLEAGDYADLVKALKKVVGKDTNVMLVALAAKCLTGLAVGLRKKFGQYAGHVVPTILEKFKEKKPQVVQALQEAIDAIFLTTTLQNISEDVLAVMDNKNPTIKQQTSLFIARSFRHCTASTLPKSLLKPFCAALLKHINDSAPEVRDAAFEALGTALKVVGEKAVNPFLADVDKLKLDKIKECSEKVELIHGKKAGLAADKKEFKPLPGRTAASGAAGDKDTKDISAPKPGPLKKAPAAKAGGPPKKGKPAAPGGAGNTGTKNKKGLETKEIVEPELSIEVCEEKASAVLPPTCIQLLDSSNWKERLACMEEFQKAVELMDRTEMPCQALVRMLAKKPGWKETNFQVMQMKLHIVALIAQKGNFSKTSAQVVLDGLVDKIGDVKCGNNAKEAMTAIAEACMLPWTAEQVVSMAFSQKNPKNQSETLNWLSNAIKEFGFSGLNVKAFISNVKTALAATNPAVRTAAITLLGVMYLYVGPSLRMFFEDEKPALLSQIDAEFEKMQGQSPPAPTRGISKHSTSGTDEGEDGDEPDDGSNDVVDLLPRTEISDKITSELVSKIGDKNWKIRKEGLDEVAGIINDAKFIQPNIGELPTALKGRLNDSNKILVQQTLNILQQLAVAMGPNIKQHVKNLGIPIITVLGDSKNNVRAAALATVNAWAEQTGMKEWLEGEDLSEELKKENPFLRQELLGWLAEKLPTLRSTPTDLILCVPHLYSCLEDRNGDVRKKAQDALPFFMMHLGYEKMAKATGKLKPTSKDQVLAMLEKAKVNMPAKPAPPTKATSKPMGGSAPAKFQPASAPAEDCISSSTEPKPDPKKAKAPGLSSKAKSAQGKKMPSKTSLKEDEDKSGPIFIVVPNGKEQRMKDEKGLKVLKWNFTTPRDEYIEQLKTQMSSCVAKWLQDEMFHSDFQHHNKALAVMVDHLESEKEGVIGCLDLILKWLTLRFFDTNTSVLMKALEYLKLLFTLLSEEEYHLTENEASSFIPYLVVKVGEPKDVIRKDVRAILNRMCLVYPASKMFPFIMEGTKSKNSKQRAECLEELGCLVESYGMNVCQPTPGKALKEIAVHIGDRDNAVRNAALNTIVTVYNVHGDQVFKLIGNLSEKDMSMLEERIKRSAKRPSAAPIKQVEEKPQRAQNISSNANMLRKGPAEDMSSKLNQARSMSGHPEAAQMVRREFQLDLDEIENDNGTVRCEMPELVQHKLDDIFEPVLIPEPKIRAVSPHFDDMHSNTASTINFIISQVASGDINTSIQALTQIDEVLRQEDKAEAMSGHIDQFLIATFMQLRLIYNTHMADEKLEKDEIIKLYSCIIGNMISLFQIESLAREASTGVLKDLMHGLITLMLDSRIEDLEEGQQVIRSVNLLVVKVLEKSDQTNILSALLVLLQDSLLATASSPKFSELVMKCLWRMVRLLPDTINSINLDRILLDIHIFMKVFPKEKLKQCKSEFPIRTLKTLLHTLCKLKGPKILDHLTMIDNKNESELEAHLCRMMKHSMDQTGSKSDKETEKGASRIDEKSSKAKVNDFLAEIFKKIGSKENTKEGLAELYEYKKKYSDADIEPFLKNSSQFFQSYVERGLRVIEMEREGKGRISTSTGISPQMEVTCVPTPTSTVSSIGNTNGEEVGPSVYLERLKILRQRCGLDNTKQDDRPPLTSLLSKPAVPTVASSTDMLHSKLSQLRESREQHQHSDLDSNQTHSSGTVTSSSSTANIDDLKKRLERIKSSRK
UniProt P30085: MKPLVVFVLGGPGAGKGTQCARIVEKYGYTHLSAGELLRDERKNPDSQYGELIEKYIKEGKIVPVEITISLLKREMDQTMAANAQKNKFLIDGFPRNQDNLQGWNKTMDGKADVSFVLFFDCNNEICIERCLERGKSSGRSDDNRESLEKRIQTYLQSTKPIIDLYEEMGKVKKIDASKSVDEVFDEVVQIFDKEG
UniProt Q9Y696: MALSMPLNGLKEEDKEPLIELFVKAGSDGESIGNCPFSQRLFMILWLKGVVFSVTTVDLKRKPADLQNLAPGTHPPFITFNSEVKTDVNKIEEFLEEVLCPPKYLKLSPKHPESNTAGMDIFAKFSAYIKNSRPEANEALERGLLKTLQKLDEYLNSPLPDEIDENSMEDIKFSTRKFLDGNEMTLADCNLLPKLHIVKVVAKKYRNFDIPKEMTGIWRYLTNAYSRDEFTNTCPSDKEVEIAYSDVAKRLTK
UniProt Q5EBM0: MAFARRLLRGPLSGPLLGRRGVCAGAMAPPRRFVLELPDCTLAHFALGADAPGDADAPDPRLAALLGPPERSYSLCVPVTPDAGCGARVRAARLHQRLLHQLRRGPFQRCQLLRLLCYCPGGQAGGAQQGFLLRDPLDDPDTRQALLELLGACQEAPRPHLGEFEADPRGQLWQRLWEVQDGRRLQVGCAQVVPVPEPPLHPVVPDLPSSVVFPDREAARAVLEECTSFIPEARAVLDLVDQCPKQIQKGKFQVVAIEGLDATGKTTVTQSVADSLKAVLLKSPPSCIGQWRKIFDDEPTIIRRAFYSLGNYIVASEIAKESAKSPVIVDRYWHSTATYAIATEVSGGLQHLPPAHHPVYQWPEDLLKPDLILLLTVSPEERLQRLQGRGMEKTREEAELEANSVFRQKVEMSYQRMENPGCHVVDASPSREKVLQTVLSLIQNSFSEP
UniProt O14967: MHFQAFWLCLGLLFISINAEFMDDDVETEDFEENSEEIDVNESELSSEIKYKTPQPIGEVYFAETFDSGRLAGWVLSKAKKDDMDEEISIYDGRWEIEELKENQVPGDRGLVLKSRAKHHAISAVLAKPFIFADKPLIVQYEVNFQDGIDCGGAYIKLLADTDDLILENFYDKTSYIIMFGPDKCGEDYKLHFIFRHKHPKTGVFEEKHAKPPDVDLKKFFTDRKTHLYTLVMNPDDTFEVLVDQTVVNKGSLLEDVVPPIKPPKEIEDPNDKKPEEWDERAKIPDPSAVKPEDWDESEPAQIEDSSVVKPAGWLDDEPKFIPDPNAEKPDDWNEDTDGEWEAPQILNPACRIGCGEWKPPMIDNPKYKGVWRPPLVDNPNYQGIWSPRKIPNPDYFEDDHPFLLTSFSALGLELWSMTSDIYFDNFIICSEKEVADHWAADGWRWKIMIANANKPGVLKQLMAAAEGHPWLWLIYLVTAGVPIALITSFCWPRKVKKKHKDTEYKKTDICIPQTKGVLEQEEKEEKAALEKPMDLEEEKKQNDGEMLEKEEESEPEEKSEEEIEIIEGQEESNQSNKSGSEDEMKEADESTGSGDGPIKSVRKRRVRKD
UniProt Q9NYJ1, whole entry, looked up: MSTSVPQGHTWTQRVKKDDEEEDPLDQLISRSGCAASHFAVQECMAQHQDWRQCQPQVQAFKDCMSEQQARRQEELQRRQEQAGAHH
UniProt P0C7P0: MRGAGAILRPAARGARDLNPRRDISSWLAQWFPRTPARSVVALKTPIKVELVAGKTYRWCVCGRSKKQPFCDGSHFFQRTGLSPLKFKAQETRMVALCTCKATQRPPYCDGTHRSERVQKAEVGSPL
UniProt Q99828: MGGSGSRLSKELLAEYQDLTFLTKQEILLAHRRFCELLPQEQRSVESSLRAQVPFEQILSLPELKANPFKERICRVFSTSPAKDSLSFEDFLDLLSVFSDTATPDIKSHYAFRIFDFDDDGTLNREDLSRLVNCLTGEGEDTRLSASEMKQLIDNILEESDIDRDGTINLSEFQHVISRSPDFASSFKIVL
UniProt Q96BR5: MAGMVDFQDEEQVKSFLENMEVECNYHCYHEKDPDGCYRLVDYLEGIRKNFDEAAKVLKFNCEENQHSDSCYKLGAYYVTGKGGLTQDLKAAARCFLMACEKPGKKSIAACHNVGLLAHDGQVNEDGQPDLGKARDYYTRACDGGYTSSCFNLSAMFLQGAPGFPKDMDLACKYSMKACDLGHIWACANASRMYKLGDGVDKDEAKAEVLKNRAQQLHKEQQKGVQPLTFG

[2] = compound: C[C@@H](Oc1cc(-c2cnn(C3CCNCC3)c2)cnc1N)c1c(Cl)ccc(F)c1Cl [crizotinib]
Method in brief: as §1

[3] = compound: C[C@@H]1COCCN1C2=NC(=NC(=C2)C3(CC3)S(=O)(=O)C)C4=C5C=CNC5=CC=C4
Method in brief: as §1

[4] = compound: C[C@H](C1=CC=C(C=C1)C(=O)NC2=C3C=CNC3=NC=C2)N
Method in brief: as §1

[5] = compound: C[C@H](Nc1ncnc2nc[nH]c12)c1cc2cccc(Cl)c2c(=O)n1-c1ccccc1 [duvelisib]
Method in brief: as §1

[6] = compound: Cc1cc(Nc2cc(CN3CCOCC3)c3nc(C)c(Cc4ccc(Cl)cc4F)n3n2)n[nH]1 [gandotinib]
Method in brief: as §1

[7] = compound: Cc1cc(Nc2cc(N3CCN(C)CC3)nc(Sc3ccc(NC(=O)C4CC4)cc3)n2)n[nH]1 [tozasertib]
Method in brief: as §1

[8] = compound: Cc1cc(SCc2sc(-c3ccc(C(F)(F)F)cc3)nc2C)ccc1OCC(=O)O
Method in brief: as §1

[9] = compound: Cc1ccc(-n2nc(C(C)(C)C)cc2NC(=O)Nc2ccc(OCCN3CCOCC3)c3ccccc23)cc1 [doramapimod]
Method in brief: as §1

[10] = compound: Cc1ccc(C(=O)N(CCCN)[C@@H](c2nc3cc(Cl)ccc3c(=O)n2Cc2ccccc2)C(C)C)cc1 [ispinesib]
Method in brief: as §1

[11] = compound: Cc1ccc(NC(=O)c2ccc(CN3CC[C@H](N(C)C)C3)c(C(F)(F)F)c2)cc1Nc1nccc(-c2cncnc2)n1 [bafetinib]
Method in brief: as §1

[12] = compound: Cc1cccc(CC(=O)N2CCc3c2ccc(-c2cn(C)c4ncnc(N)c24)c3F)n1
Method in brief: as §1

[13] = compound: Cc1cn(-c2cc(NC(=O)c3ccc(C)c(Nc4nccc(-c5cccnc5)n4)c3)cc(C(F)(F)F)c2)cn1 [nilotinib]
Method in brief: as §1

[14] = compound: Cc1nc(Nc2n[nH]c3c2CN(C(=O)N[C@H](CN(C)C)c2ccccc2)C3(C)C)c2sccc2n1
Method in brief: as §1

[15] = compound: Cc1nc(Nc2ncc(C(=O)Nc3c(C)cccc3Cl)s2)cc(N2CCN(CCO)CC2)n1 [dasatinib]
Method in brief: as §1

[16] = compound: Cc1ncc(-c2ccnc(Nc3ccc(S(C)(=O)=O)cc3)n2)n1C(C)C
Method in brief: as §1

[17] = compound: Cn1cc(-c2ccc3c(c2)CCN3C(=O)Cc2cccc(C(F)(F)F)c2)c2c(N)ncnc21
Method in brief: as §1

[18] = compound: Cn1cc(-c2ccc3nnc(C(F)(F)c4ccc5ncccc5c4)n3n2)cn1
Method in brief: as §1

[19] = compound: Cn1cncc1[C@@](N)(c1ccc(Cl)cc1)c1ccc2c(c1)c(-c1cccc(Cl)c1)cc(=O)n2C [tipifarnib]
Method in brief: as §1

[20] = compound: FC(F)(F)c1ccc(/C=C/c2nc(COc3ccc(CCCCn4ccnn4)cc3)co2)cc1 [mubritinib]
Method in brief: as §1

Measured: log2 fold change

CIAPIN1 (UniProt Q6FI81)
inactive: [1] -0.021 | [2] 0.056 | [3] 0.064 | [4] -0.104 | [5] 0.029 | [6] -0.118 | [7] 0.044 | [8] 0.009 | [9] -0.047 | [10] 0.053 | [11] -0.032 | [12] 0.015 | [13] -0.016 | [14] -0.013 | [15] -0.03 | [16] 0.004 | [17] 0.013 | [18] -0.017 | [19] -0.02 | [20] 0.046

CKMT1A (UniProt P12532)
inactive: [1] 0.019 | [2] 0.05 | [3] -0.035 | [4] 0.002 | [5] 0.016 | [6] 0.014 | [7] 0.014 | [8] -0.002 | [9] -0.018 | [10] 0.032 | [11] -0.027 | [12] -0.052 | [13] -0.048 | [14] 0.013 | [15] 0.019 | [16] -0.001 | [17] 0 | [18] 0.022 | [19] 0.083 | [20] -0.005

CLUH (UniProt O75153)
inactive: [1] -0.001 | [2] -0.094 | [4] 0.094 | [6] -0.037 | [8] 0.01 | [9] 0.02 | [10] 0.043 | [11] 0.007 | [12] 0.045 | [13] 0.191 | [14] 0.108 | [15] -0.093 | [16] -0.068 | [17] 0.067 | [19] -0.022 | [20] -0.018
active: [3] 0.348 | [5] 0.698 | [18] 0.478

CLIC1 (UniProt O00299)
inactive: [1] 0.011 | [2] 0.079 | [3] 0.05 | [4] -0.053 | [5] 0.013 | [6] -0.018 | [7] 0.003 | [8] 0 | [9] -0.072 | [10] 0.096 | [11] -0.037 | [12] 0.016 | [13] 0.013 | [14] 0.003 | [15] -0.011 | [16] -0.005 | [17] 0.024 | [18] 0.01 | [19] 0.013 | [20] 0.02

CLCC1 (UniProt Q96S66)
inactive: [1] -0.001 | [2] 0.02 | [3] 0.043 | [4] -0.055 | [5] 0.051 | [6] -0.091 | [7] -0.017 | [8] 0.012 | [9] 0 | [10] 0.025 | [11] -0.034 | [12] -0.039 | [13] 0.023 | [14] 0.014 | [15] 0.025 | [16] -0.022 | [17] 0.057 | [18] 0.021 | [19] 0.006 | [20] 0.002

CLEC16A (UniProt Q2KHT3)
inactive: [1] 0.026 | [2] -0.026 | [3] 0.092 | [4] 0.019 | [5] -0.03 | [6] 0.025 | [7] -0.017 | [8] -0.055 | [9] 0.022 | [10] 0.034 | [11] 0.011 | [12] 0.004 | [13] -0.046 | [14] 0.039 | [15] 0.053 | [16] -0.037 | [17] 0.017 | [18] -0.01 | [19] 0.067 | [20] 0.018

CLTA isoform 2 (UniProt P09496)
inactive: [1] -0.032 | [2] -0.004 | [3] -0.029 | [4] 0.007 | [5] -0.08 | [6] -0.048 | [7] -0.033 | [8] -0.101 | [9] 0.058 | [10] -0.014 | [11] 0.041 | [12] -0.016 | [13] 0.085 | [14] 0.048 | [15] 0.061 | [16] -0.025 | [17] -0.056 | [18] -0.023 | [19] -0.003 | [20] -0.01

CKAP5 (UniProt Q14008)
inactive: [1] -0.038 | [2] -0.215 | [3] -0.015 | [4] 0.144 | [5] -0.055 | [6] -0.06 | [7] -0.026 | [8] 0.116 | [9] 0.129 | [10] -0.217 | [11] 0.081 | [12] 0.106 | [13] -0.073 | [14] -0.116 | [15] -0.147 | [16] -0.014 | [17] -0.02 | [18] -0.056 | [19] -0.12 | [20] -0.021

CMPK1 (UniProt P30085)
inactive: [1] 0.028 | [2] -0.083 | [3] 0.009 | [4] -0.076 | [5] 0.029 | [6] -0.059 | [7] -0.003 | [8] 0.014 | [9] -0.016 | [10] 0.022 | [11] -0.031 | [12] 0.013 | [13] 0.05 | [14] 0.027 | [15] -0.039 | [16] 0.014 | [17] 0.029 | [18] -0.036 | [19] -0.032 | [20] 0.048

CLIC4 (UniProt Q9Y696)
inactive: [1] 0.032 | [2] 0.051 | [3] 0.129 | [4] -0.011 | [5] 0.064 | [6] 0.017 | [7] 0.026 | [8] 0.003 | [9] -0.033 | [10] 0.059 | [11] -0.054 | [12] -0.004 | [13] -0.002 | [14] -0.053 | [15] -0.036 | [16] -0.025 | [17] 0.04 | [18] -0.006 | [19] 0 | [20] 0.084

CMPK2 (UniProt Q5EBM0)
inactive: [1] 0.058 | [2] -0.016 | [3] 0.107 | [4] 0.088 | [5] 0.044 | [6] -0.031 | [7] -0.044 | [8] -0.032 | [9] 0.038 | [11] 0.015 | [12] 0.021 | [13] -0.004 | [14] -0.018 | [15] -0.076 | [16] 0.027 | [17] -0.021 | [19] -0.016 | [20] 0.014

CLGN (UniProt O14967)
inactive: [1] -0.029 | [2] -0.098 | [3] -0.042 | [4] 0.007 | [5] -0.104 | [6] 0.028 | [7] -0.003 | [8] 0.005 | [9] 0.042 | [10] -0.045 | [11] -0.052 | [12] 0.007 | [13] -0.073 | [14] 0.054 | [15] 0.054 | [16] -0.014 | [17] -0.167 | [18] -0.139 | [19] 0.067 | [20] -0.027

COA4 isoform 2 (UniProt Q9NYJ1)
inactive: [1] -0.121 | [2] 0.19 | [3] 0.069 | [4] -0.019 | [5] -0.015 | [6] -0.012 | [8] -0.066 | [9] 0.017 | [10] 0.21 | [11] -0.083 | [12] -0.057 | [13] 0.065 | [14] -0.06 | [15] 0.311 | [16] -0.044 | [17] 0.05 | [18] 0.308 | [19] 0.049 | [20] 0.047

Two neighbouring entries out of the list so far, quoted:
CMPK2 (UniProt Q5EBM0)
inactive: [1] 0.058 | [2] -0.016 | [3] 0.107 | [4] 0.088 | [5] 0.044 | [6] -0.031 | [7] -0.044 | [8] -0.032 | [9] 0.038 | [11] 0.015 | [12] 0.021 | [13] -0.004 | [14] -0.018 | [15] -0.076 | [16] 0.027 | [17] -0.021 | [19] -0.016 | [20] 0.014

CLGN (UniProt O14967)
inactive: [1] -0.029 | [2] -0.098 | [3] -0.042 | [4] 0.007 | [5] -0.104 | [6] 0.028 | [7] -0.003 | [8] 0.005 | [9] 0.042 | [10] -0.045 | [11] -0.052 | [12] 0.007 | [13] -0.073 | [14] 0.054 | [15] 0.054 | [16] -0.014 | [17] -0.167 | [18] -0.139 | [19] 0.067 | [20] -0.027

More entries.

CISD3 (UniProt P0C7P0)
inactive: [1] -0.075 | [2] 0.065 | [3] 0.024 | [4] -0.273 | [5] -0.227 | [6] 0.056 | [7] -0.032 | [8] 0.055 | [9] 0.017 | [10] -0.198 | [11] -0.102 | [12] -0.002 | [13] -0.089 | [14] 0.042 | [15] -0.112 | [16] 0.058 | [17] 0.021 | [18] -0.07 | [19] 0.024 | [20] -0.012

CIB1 isoform 2 (UniProt Q99828)
inactive: [1] 0.037 | [2] 0.009 | [3] 0.058 | [4] -0.019 | [5] 0.008 | [6] 0.069 | [7] 0.024 | [8] -0.075 | [9] 0 | [10] -0.073 | [11] 0.044 | [12] -0.107 | [13] 0.049 | [14] -0.057 | [15] 0.272 | [16] 0.039 | [17] 0.026 | [18] 0.03 | [19] 0.09 | [20] 0.096

COA7 (UniProt Q96BR5)
inactive: [1] -0.039 | [2] -0.013 | [3] 0.062 | [4] -0.048 | [5] 0.014 | [6] -0.093 | [7] 0.016 | [8] -0.034 | [9] -0.064 | [10] 0.065 | [11] -0.013 | [12] -0.001 | [13] -0.033 | [14] -0.001 | [15] 0.031 | [16] 0.006 | [17] 0.009 | [18] 0.02 | [19] -0.089 | [20] 0.028

— the supplement of paper PMC10849652
